# In PubChem BioAssay AID743255 (National Center for Advancing Translational Sciences (NCATS), 2014):
# By UniProt entry, the sequences of proteins in these tests, tags left out. Where a name states a change or a piece, a line headed by the entry shows the natural chain unless it says otherwise.
# UniProt O94782: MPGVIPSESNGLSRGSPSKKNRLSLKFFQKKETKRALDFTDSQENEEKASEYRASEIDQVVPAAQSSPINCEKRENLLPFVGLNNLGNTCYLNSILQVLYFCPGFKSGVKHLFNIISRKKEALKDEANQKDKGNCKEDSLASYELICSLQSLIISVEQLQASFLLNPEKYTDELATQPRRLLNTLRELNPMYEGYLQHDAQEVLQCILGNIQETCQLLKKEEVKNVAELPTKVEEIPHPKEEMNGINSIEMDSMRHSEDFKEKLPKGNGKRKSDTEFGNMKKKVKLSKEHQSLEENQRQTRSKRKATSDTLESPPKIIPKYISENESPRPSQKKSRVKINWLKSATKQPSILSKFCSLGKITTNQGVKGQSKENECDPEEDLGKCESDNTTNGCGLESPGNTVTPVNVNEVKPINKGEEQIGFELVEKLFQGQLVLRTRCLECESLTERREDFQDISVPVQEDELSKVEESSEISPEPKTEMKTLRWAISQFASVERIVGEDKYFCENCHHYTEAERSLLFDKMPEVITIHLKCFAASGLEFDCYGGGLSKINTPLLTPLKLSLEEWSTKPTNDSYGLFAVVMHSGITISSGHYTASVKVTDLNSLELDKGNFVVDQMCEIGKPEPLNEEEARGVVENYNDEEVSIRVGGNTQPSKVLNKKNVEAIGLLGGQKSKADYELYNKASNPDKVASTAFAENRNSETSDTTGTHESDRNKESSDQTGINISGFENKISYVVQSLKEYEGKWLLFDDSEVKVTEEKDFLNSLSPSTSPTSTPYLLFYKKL
# Screen size: about 390,000 compounds; about 910 (0.23%) were called active. The inconclusive results got no clear call from the source; some entries with a clear call stand among them for comparison. The call rests on the fitted dose curve; in most records, active means well fitted inhibition curve with a large enough effect; inconclusive means small, poorly fitted or top-dose-only effect; inactive means no such curve, though single readings can be large or run the other way. Potencies beside an inconclusive call are fits to weak or partial responses and may not hold up.
# Target: Ubiquitin carboxyl-terminal hydrolase 1 (Homo sapiens) (UniProt O94782)
# Test: Inhibitors of USP1/UAF1: Primary Screen; further: nearly all actives have a fitted effect of over 60% in size
# Conditions: recombinant USP1/UAF1, Ub-Rhodamine cleavage fluorescence; series mostly up to 57.1 µM
# In short: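 High-throughput fluorogenic screen: 1nM USP1/UAF1 complex, Ub-Rho substrate 150nM final, 50mM HEPES pH 7.8 with 0.5mM EDTA, 0.1 mg/ml BSA, 1mM TCEP and 0.01% Tween-20.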
# Potency means the concentration at half of the fitted maximal effect.
row,Structure (SMILES),Potency
1,Cc1c(C(=O)OCC(=O)N2CCN(c3ccccc3)CC2)oc2ccccc12,"inconclusive: 50.1 µM [inhibitor, partial curve, poor fit]"
2,COC(=O)C1=C(C)N(Cc2ccccc2)C(=NCCc2c[nH]c3ccccc23)N[C@H]1c1cccc(C(F)(F)F)c1,"inconclusive: 2.51 µM [inhibitor, full curve, poor fit]"
3,S=c1[nH]nc(-c2cc(-c3ccco3)[nH]n2)n1-c1ccccc1Cl,inactive
4,COc1ccc(NC(=O)CN2C(=O)CSc3ccc(S(=O)(=O)N(C)C)cc32)cc1Cl,inactive
5,O=C(COC(=O)C(Cc1ccccc1)NC(=O)c1ccc(Cl)cc1)c1ccc(Cl)cc1 (centres undefined),"inconclusive: 31.6 µM [inhibitor, partial curve]"
6,Cn1c(=O)[nH]c(=O)c2c1nc(CN1CCN(Cc3ccccc3)CC1)n2CC(N)=O,"inconclusive: 39.8 µM [inhibitor, single point]"
7,CCCN1C(=O)/C(=C/c2ccc3c(c2)OCO3)NC1=S,inactive
8,CCOc1ccc(NC(=O)C2CCN(S(=O)(=O)c3c(C)noc3/C=C/c3c(C)cc(C)cc3C)CC2)cc1,"inconclusive: 70.8 µM [inhibitor, partial curve, poor fit]"
9,COc1ccc(C2Nc3cc(OC)ccc3-n3cccc32)cc1 (centres undefined),inactive
10,O=C(Nc1ccccc1)c1ccc(S(=O)(=O)N2CCCCC2)cc1,"inconclusive: 35.5 µM [inhibitor, partial curve, poor fit]"
11,COc1ccc(Br)cc1CNC(=O)c1cc(=O)[nH]c2ccc(S(=O)(=O)N3CCCCC3)cc12,"inconclusive: 0.251 µM [inhibitor, full curve, poor fit]"
12,O=C1C=CC(=O)N1Cc1cccnc1,"inconclusive: 31.6 µM [inhibitor, partial curve]"
13,Cc1ccc(C2CC(c3cccs3)=NN2C(=O)CCl)cc1 (centres undefined),inactive
14,CN1CCN(C2=C(Cl)C(=O)C(c3cnc(N4CCCCC4)s3)=C(Cl)C2=O)CC1,"inconclusive: 28.2 µM [inhibitor, partial curve]"
15,C/C(O)=C(/C=NCC(=O)O)C(=O)Nc1nccs1,"inconclusive: 4.47 µM [inhibitor, single point]"
16,Fc1ccc(-n2nnnc2-c2cnc(-c3cccs3)nc2C(F)(F)F)cc1,inactive
17,CC(C)(C)[C@@H]1COC(=O)[C@H](Cc2ccc(F)cc2)CC/C=C\C[C@H](CC(=O)N(CCO)Cc2ccccc2)C(=O)N1,"inconclusive: 3.55 µM [inhibitor, full curve, poor fit]"
18,Cc1ccc(N(C)S(=O)(=O)c2nnc(NC(=O)CC(C)C)s2)cc1,"inconclusive: 44.7 µM [inhibitor, partial curve, poor fit]"
19,CCN(CC)c1ccc(NC(=O)c2sc3ccccc3c2Cl)cc1,inactive
20,S=c1[nH]nc(-c2cc(-c3ccccc3)n[nH]2)n1/N=C/c1ccc(Cl)cc1,inactive
21,COc1cc(-c2cc3n(C)c(C)c(CCC(=O)NCc4ccccc4)c(=O)n3n2)cc(OC)c1OC,inactive
22,O=C(OCn1ncc(Cl)c(Cl)c1=O)c1ccc(C(F)(F)F)cc1,"inconclusive: 22.4 µM [inhibitor, partial curve]"

row,Structure (SMILES),Potency
1,COc1cccc(-c2cc(C(=O)N3CCN(Cc4ccc5c(c4)OCO5)CC3)on2)c1,"inconclusive: 0.224 µM [inhibitor, full curve, poor fit]"
2,COCCCNC(=O)C1CCC(CNS(=O)(=O)c2ccc(OC)cc2)CC1 (centres undefined),"inconclusive: 8.91 µM [inhibitor, partial curve, poor fit]"
3,CCc1ccc(S(=O)(=O)/N=C2/C=C(Sc3ncn[nH]3)C(=O)c3ccccc32)cc1,active: 1.78 µM
4,Cc1cccc(OCCCC(=O)Nc2nnc(C3CCCO3)s2)c1C (centres undefined),inactive
5,CCCCCCC(=O)Nc1nc(C)c(-c2csc(Nc3ccccc3OC)n2)s1,inactive
6,CC(=O)N1CCN=C1SCc1ccc(Cl)cc1,"inconclusive: 3.55 µM [inhibitor, partial curve]"
7,CC1CCN(c2ccc(-c3cccc(NS(=O)(=O)c4cccs4)c3)nn2)CC1,"inconclusive: 35.5 µM [inhibitor, partial curve, poor fit]"
8,C(=C\c1nccc2c1[nH]c1ccccc12)/c1ccccc1,"inconclusive: 44.7 µM [inhibitor, partial curve, poor fit]"
9,COc1cccc(CNC(=O)CN2CCCN(Cc3ccccc3)S2(=O)=O)c1,"inconclusive: 89.1 µM [inhibitor, partial curve, poor fit]"
10,Cc1ccc(NC(=O)c2ccc(C)cc2)cc1,"inconclusive: 5.01 µM [inhibitor, partial curve]"
11,COc1cccc(N/C=C/C(=O)c2ccc(Br)cc2)c1,"inconclusive: 50.1 µM [inhibitor, partial curve, poor fit]"
12,CCCCCC(=O)Nc1nc(C)c(-c2csc(Nc3cc(Cl)ccc3C)n2)s1,"inconclusive: 15.8 µM [inhibitor, partial curve, poor fit]"
13,Cc1cccc(NS(=O)(=O)c2cc(C(=O)NCCC3=CCCCC3)ccc2Cl)c1,"inconclusive: 15.8 µM [inhibitor, partial curve]"
14,C#CCNC(=O)C1=C[C@@H](C2CCCCC2)C[C@@H](OCc2ccc(CO)cc2)O1,inactive
15,CCN(CC(=O)NCc1cccs1)C(=O)c1ccc(S(=O)(=O)Nc2ccccc2OC)cc1,"inconclusive: 0.398 µM [inhibitor, full curve, poor fit]"
16,COc1ccc(/C=C2/NC(=O)N(CC(=O)Nc3cccc(C)c3)C2=O)cc1O,"inconclusive: 7.08 µM [inhibitor, partial curve, poor fit]"
17,COC(=O)C(CCCCNC(=O)c1ccc([N+](=O)[O-])cc1)NC(=O)c1ccc([N+](=O)[O-])cc1 (centres undefined),"inconclusive: 0.794 µM [inhibitor, full curve, poor fit]"
18,Cc1nn(C)c(C)c1CCNC(=O)Nc1cccc(Cl)c1C,"inconclusive: 50.1 µM [inhibitor, partial curve, poor fit]"
19,Cn1c(=O)[nH]c(=O)c2c1nc1n2CCN1Cc1ccccc1,inactive
20,COc1cccc(NC(=O)Cn2c(=O)ccc3cc(S(=O)(=O)N4CCC(C)CC4)ccc32)c1,inactive
21,Cn1nc(-c2ccc(OCC(=O)Nc3ccc(Cl)cc3)cc2)c2ccccc2c1=O,"inconclusive: 17.8 µM [inhibitor, partial curve, poor fit]"
22,Nc1nc(CN2CCc3ccccc3C2)nc(Nc2ccccc2)n1,"inconclusive: 28.2 µM [inhibitor, single point]"

# Quoted at random: 3 entries already listed.
row,Structure (SMILES),Potency
10,Cc1ccc(NC(=O)c2ccc(C)cc2)cc1,"inconclusive: 5.01 µM [inhibitor, partial curve]"
9,COc1cccc(CNC(=O)CN2CCCN(Cc3ccccc3)S2(=O)=O)c1,"inconclusive: 89.1 µM [inhibitor, partial curve, poor fit]"
7,CC1CCN(c2ccc(-c3cccc(NS(=O)(=O)c4cccs4)c3)nn2)CC1,"inconclusive: 35.5 µM [inhibitor, partial curve, poor fit]"

# The list goes on.

row,Structure (SMILES),Potency
1,COc1ccc(-c2c(C)oc3ccc(C)cc23)cc1,"inconclusive: 28.2 µM [inhibitor, single point]"
2,CCOc1cccc(C(=O)NCc2ccccc2)c1,"inconclusive: 7.08 µM [inhibitor, full curve, poor fit]"
3,Cc1ccccc1Nc1c(-c2cccnc2)nc2cccc(C)n12,"inconclusive: 5.01 µM [inhibitor, partial curve]"
4,Cc1ccc(CN2C(=O)C(=O)c3cc(Br)cc(C)c32)cc1,"inconclusive: 35.5 µM [inhibitor, partial curve]"
5,CSc1ccc(CCNC(=O)Cn2ncn3c(cc4ccccc43)c2=O)cc1,"inconclusive: 0.794 µM [inhibitor, full curve]"
6,O=C(c1cccc(O)c1)N1CCN(C(=O)C2CC2)CC1,inactive
7,O=C1CC(C(F)(F)F)=NN1,"inconclusive: 35.5 µM [inhibitor, single point]"
8,Cc1cc(NC(=O)C(=O)NCc2cccc(Cl)c2)no1,"inconclusive: 39.8 µM [inhibitor, single point]"
9,CC(C)(C)C1CCc2c(sc(NC(=O)CSc3ncn[nH]3)c2C#N)C1 (centres undefined),inactive
10,Cc1cc(NC(=O)/C(C#N)=C\c2ccc(-c3ccc(SC(F)F)cc3)o2)n(-c2ccccc2)n1,"inconclusive: 31.6 µM [inhibitor, partial curve, poor fit]"
11,Cc1ccc(NC(=O)C2CCN(c3nc4ccccc4nc3C(F)(F)F)CC2)cc1C,"inconclusive: 15.8 µM [inhibitor, partial curve]"
12,CN(C)CCCN(C(=O)c1ccc(C(=O)c2ccccc2)cc1)c1nc2ccc(F)cc2s1,inactive
13,Cc1cccc(NC(=O)CNC(=O)c2ccc(S(=O)(=O)NCc3ccco3)cc2)c1C,"inconclusive: 0.251 µM [inhibitor, full curve, poor fit]"
14,COc1ccc(-c2c/c(=N\c3nc(-c4ccccc4)c(C)s3)c3ccccc3o2)cc1O,inactive
15,C=CCn1c(SCC(=O)NC2CCCC2)nc2scc(-c3ccco3)c2c1=O,inactive
16,O=C(/C=C/c1ccc(F)cc1)N1CCc2ccccc2C1,"inconclusive: 44.7 µM [inhibitor, partial curve]"
17,COc1ccc(OC)c(/C=N/NC(=O)C(O)c2ccccc2)c1 (centres undefined),"inconclusive: 8.91 µM [inhibitor, partial curve, poor fit]"
18,CN1/C(=C\C(=O)COC(=O)CNC(=O)c2ccc3ccccc3c2)C(C)(C)c2ccccc21,"inconclusive: 44.7 µM [inhibitor, partial curve, poor fit]"
19,CCc1cc(=O)oc2cc3occ(-c4ccc(OC)c(F)c4)c3cc12,"inconclusive: 50.1 µM [inhibitor, partial curve, poor fit]"
20,CC(C)Nc1ccc(C(CC(N)=O)NC(=O)Cc2cccc3ccccc23)cc1[N+](=O)[O-] (centres undefined),"inconclusive: 0.251 µM [inhibitor, full curve, poor fit]"
